No constants are given. Whether binding was seen depends on the method and setting. Binding seen in cells or lysates may run through a third protein. Here binding means that the protein was enriched with, or labelled near, the bait; the list need not be complete.
Target: Flag-tagged Fis1 (mitochondrial fission 1 protein) (UniProt Q9Y3D6)
Experiment: affinity purification with mass spectrometry; HeLa cells transfected with Flag vector or Flag-Fis1 for 24 h; IP with anti-Flag beads; Coomassie-stained bands 1 and 2 analysed by mass spectrometry

By UniProt entry, the sequences of proteins in these tests, tags left out.
UniProt Q9Y3D6: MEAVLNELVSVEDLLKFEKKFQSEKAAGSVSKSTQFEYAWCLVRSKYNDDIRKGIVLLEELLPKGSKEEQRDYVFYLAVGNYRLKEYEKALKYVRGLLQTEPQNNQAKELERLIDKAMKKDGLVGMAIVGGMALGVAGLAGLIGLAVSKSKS
UniProt P56962: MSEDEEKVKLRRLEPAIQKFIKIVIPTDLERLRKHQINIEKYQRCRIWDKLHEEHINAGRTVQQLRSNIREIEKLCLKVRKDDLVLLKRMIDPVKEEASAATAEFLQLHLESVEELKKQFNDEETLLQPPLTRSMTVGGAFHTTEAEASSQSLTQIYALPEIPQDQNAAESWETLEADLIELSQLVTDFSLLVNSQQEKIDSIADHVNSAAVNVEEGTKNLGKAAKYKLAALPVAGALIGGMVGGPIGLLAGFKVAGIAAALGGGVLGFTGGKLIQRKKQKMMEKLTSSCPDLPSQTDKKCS

With “Syntaxin 17 (STX17), endogenous (from UniProt P56962 1-302)” the binding was “binds”.

— publication PMC6499814
